Results reported in publication PMC3097230.

Target: endogenous p130Cas (African green monkey (endogenous in Cos7))
Assay: co-IP; Cos7 cells transfected with GFP-dynamin I, with or without 100 ng/ml EGF for the indicated times; lysate immunoprecipitated with anti-p130Cas antibody (Cas2), immunoblot with anti-GFP

binding: binds
B1: GFP-dynamin I (protein, UniProt Q05193 1-864)
chain: MGNRGMEDLIPLVNRLQDAFSAIGQNADLDLPQIAVVGGQSAGKSSVLENFVGRDFLPRGSGIVTRRPLVLQLVNATTEYAEFLHCKGKKFTDFEEVRLEIEAETDRVTGTNKGISPVPINLRVYSPHVLNLTLVDLPGMTKVPVGDQPPDIEFQIRDMLMQFVTKENCLILAVSPANSDLANSDALKVAKEVDPQGQRTIGVITKLDLMDEGTDARDVLENKLLPLRRGYIGVVNRSQKDIDGKKDITAALAAERKFFLSHPSYRHLADRMGTPYLQKVLNQQLTNHIRDTLPGLRNKLQSQLLSIEKEVEEYKNFRPDDPARKTKALLQMVQQFAVDFEKRIEGSGDQIDTYELSGGARINRIFHERFPFELVKMEFDEKELRREISYAIKNIHGIRTGLFTPDMAFETIVKKQVKKIREPCLKCVDMVISELISTVRQCTKKLQQYPRLREEMERIVTTHIREREGRTKEQVMLLIDIELAYMNTNHEDFIGFANAQQRSNQMNKKKTSGNQDEILVIRKGWLTINNIGIMKGGSKEYWFVLTAENLSWYKDDEEKEKKYMLSVDNLKLRDVEKGFMSSKHIFALFNTEQRNVYKDYRQLELACETQEEVDSWKASFLRAGVYPERVGDKEKASETEENGSDSFMHSMDPQLERQVETIRNLVDSYMAIVNKTVRDLMPKTIMHLMINNTKEFIFSELLANLYSCGDQNTLMEESAEQAQRRDEMLRMYHALKEALSIIGDINTTTVSTPMPPPVDDSWLQVQSVPAGRRSPTSSPTPQRRAPAVPPARPGSRGPAPGPPPAGSALGGAPPVPSRPGASPDPFGPPPQVPSRPNRAPPGVPSRSGQASPSRPESPRPPFDL

No constants are given. Whether binding was seen depends on the method and setting. Binding seen in cells or lysates may run through a third protein. Binding can be weak; no strength is given. Tags and fused reporters may be left off the sequences shown.
